The values that follow come from article PMC8586358 (Nature Communications, 2021).

Amino acid sequences for entries named in this document (tags omitted). A change or cut given only in a name is not applied to a line headed by its entry.
UniProt P35462, whole entry: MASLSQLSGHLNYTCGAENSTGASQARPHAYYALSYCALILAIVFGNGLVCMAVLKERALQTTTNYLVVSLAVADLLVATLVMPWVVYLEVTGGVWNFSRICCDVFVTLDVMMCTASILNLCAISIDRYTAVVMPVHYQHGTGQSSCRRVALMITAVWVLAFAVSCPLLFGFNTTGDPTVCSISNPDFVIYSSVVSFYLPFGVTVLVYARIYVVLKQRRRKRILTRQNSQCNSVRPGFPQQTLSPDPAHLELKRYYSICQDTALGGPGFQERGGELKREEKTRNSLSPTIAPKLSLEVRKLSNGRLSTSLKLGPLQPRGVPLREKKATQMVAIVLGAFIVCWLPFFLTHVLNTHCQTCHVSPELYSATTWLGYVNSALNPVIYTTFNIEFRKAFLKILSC

A number of entries come with more than one value. Only these are listed. There may be further records. Values given together read as repeated measurements on other runs, samples or individuals.

For the experiment, the target named is D3R (Homo sapiens, UniProt P35462). The experiment in a line: BRET-based Gi1-activation assay in HEK 293T cells. The conditions noted are these: PD 128907 10^-10 M, vehicle pretreatment.

On to `CCCN1CCOC2c3cc(O)ccc3OCC21` (single isomer, unassigned), for which the “Gi1-BRET response (%, norm. to pretreatment)” value is 19.9504% and 4.1%.
